# Screening data

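Genome-wide siRNA knockdown in TC32 Ewing sarcoma cells, comparing luciferase light from an NR0B1-promoter reporter with a CMV-promoter reporter 48 hours after transfection.
Each siRNA was applied at 20 nM.
A z-score of the log NR0B1-over-CMV signal, less the median of siRNAs with the same seed; more negative means a stronger specific loss of the NR0B1 reporter.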

The strongest results of the screen are mostly left out here.
Sequences are the guide (antisense) strand, without overhang.

| siRNA | gene | seed-corrected z-score |
|---|---|---|
| `UCUUCUGCAGGGUAUGUGC` | PLIN1 | -0.8038 |
| `UUAUGUUCUCGAAGUAUUC` | MME | -0.452 |
| `AGCUCAAUAAAUUCAACCC` | GHR | 1.107 |
| `UCAAACAUCAUGACUAACU` | AIF1L | -0.132 |
| `ACAGUGAUCCCAGUUAAAG` | FOLR3 | 0.8141 |
| `AGACGCAAAAUGUCUGUCC` | TMEM170A | 0.2917 |
| `UGUCUAUCUAGCUUGUACC` | CNTNAP3B | 0.3095 |
| `UUCGUUUCUAGGGUCAUUC` | IMMT | 0.8295 |
| `UUCUUGUCUACGGCGAUCU` | CPSF3L | -0.9198 |
| `AUUGAUCUGAUAGUGCUUG` | PCSK7 | -0.2231 |
| `AUAGUCAUGAUCGUGUUCC` | KRT26 | 1.191 |
| `AACACCUUAACUACUCGCC` | LIPK | 0.5518 |
| `UAACAGGUCCGGAGCAUCC` | PRODH2 | 0.1149 |
| `UUCCUUAUACAUUUCCUCC` | RPL5P1 | -0.1055 |
| `UAGAGUUUGUUUUCAAUCC` | RET | 0.9526 |
| `UGGACUUCCAGCGAGAUCC` | SOX13 | -0.1543 |
| `UAACCCACUGUUGUCAUGG` | KCNA3 | -0.2322 |
| `AUAUGUCUAGGUCUCCUUU` | SPANXN4 | -1.135 |
| `UACACUAUGAAUUUGCUUG` | ZNF493 | 0.9997 |
| `UCUUUCACUUGUGCGAUGG` | GPNMB | -0.08308 |
| `UUUCUGACAACGGCCAUAG` | CLPSL1 | -1.262 |
| `AUCCGGUCAAUCAAGGUUG` | KANSL3 | -0.4969 |
| `UUUGUGACUUGGGCAAAUU` | AAAS | 0.3321 |
| `UCCUCCACAACACCGAUGC` | C6orf15 | 0.2662 |
| `UGUUCAAUCACUCCAUAGC` | HERC3 | 0.1468 |
| `UAUACCAUGAGCUCAUAUC` | OR2AG1 | 0.4831 |
| `UUCCUUCACAGAGUGAGGU` | FAM169B | 0.0229 |
| `AAUGAUACCUGGGAGAUCC` | DRG1 | -0.04765 |
| `UUUCGAACUGUGAUGUUCC` | ITGA1 | 0.1123 |
| `UGUGGUUGAGUAGUAGCCC` | TACR1 | -1.678 |
| `UCAUGGUAUAAAUCAUUGC` | ATP5B | 0.1556 |
| `UGAUUUUCUCUCUAAACUC` | TRIM13 | 0.7909 |
| `UAUCGAGUAACAUUGUUGC` | ADGRL2 | -0.5152 |
| `UCUCAUAUUAGCUUGGAUC` | TGM5 | -0.1653 |
| `AUUGAUGCGAGUAACGAUC` | MYO1D | 0.2709 |
| `UAAGGCAUGAGUGUCGAAG` | MCUR1 | 0.3488 |
| `UUUGCAAUGACUCGAGGAC` | RGMB-AS1 | -0.6056 |
| `ACUUCUUAAACCUCCUGCC` | PPP3R2 | 0.1303 |
| `ACACUUGUAACAGGUGACC` | CPSF4 | 0.212 |
| `AAACGUGCAUUUUACACCC` | CLDN16 | 0.5907 |
| `UGAGUUUUGCGGCUGUUUG` | GZMK | 0.6797 |
| `AUUCGUUCAAUGUUAAGCC` | CRY2 | 0.09447 |
| `UAUACAGUAUCUUACAGGC` | BBC3 | 0.2581 |
| `AAUGCUGAGACUGCCUUUG` | SYT12 | 0.8235 |
| `AACUGCUUAAAGAUGUUGC` | ZNF195 | -1.451 |
| `UUCAAGAUCAGCGACAUAC` | RNF146 | -0.1083 |
| `UUAGCUAGAUCUAAUUUUC` | CARTPT | 0.2569 |
| `UGUCUGAUAAGGGUCCCUC` | CELA1 | -0.04845 |
| `UUGUUGAUCUGAUCGAUUU` | CDK11B | 0.5476 |
| `UUCGUAUACGAAAUGUAGC` | ZNF518B | 0.7911 |
| `UCUCUGGUGAGCGAUAUAG` | PIEZO2 | -0.1907 |
| `UUCUAUCUCAGACAGGCUC` | HIP1 | -0.6429 |
| `UAGCAUAAAGUGAGCUUCC` | PCDHGA10 | 0.6433 |
| `AUUCGAGAGACUUCCAGCC` | DKFZp434E1119 | -1.05 |
| `UCCAGUGUGGAGUUGGUCC` | IFNWP2 | 1.604 |
| `UUUCUCAUCUGCGGCCUCC` | CT47B1 | 0.8064 |
| `UGUUUUCUACGCAGAAACC` | DRGX | 2.333 |
| `UGUCUCUUCAGGAUUCGGC` | QTRTD1 | 0.7069 |
| `AGAAAUAUCAAGAAAGUGA` | PLAC1 | 1.258 |
| `UCGUUUAACAACAACAUCA` | VIMP | -0.2864 |
| `UUAUGUAUGAAGGCUUGUG` | NOL7 | -0.6431 |
| `CAAAUGUCGCGAGACCUUC` | LOC729887 | 0.0905 |
| `GUGUGAGCCACAUUUGCUG` | CYSRT1 | -1.149 |
| `UUACUGUUUCGCUUCACUG` | SNED1 | 0.4282 |
| `UAACGAUACAGGAAGGCUG` | ZNF608 | 0.2962 |
| `UAAGAUAUUUUCAUGCCUC` | ACVR1 | 0.2091 |
| `UGAAUAUAGAGGACAGAGG` | THEM6 | -1.047 |
| `UACUCAUUUUUACUUAGCC` | PCDHA11 | -0.3991 |
| `UCAUCGACCUUAACUUUCC` | KTN1 | -0.4084 |
| `AUCAUAACAGAUAUUGUUG` | GJA10 | -0.2756 |
| `AGUGGUCACAGAGAAUCGC` | CYP2B6 | -0.6651 |
| `UUAGGGUAUAGAUGAAAGG` | OR1C1 | 0.2009 |
| `UAGAAGUCAACGUAGUUGC` | CTNND2 | 0.2842 |
| `UAUUCCACUAUAUCUGGAG` | C11orf54 | 0.5352 |
| `UGACGUAUCUGUCUUACUG` | NCOA3 | 0.3723 |
| `AAUGUUAUCUCCUAGAGUC` | SPPL2A | 0.5436 |
| `UCUAGUGAUAUCAUAGACC` | RAB14 | 0.06759 |
| `UGUGAAGCAUCGCUGGAGG` | TIRAP | 0.2749 |
| `UCUUGAUCUGGUGAAUUUG` | MRPL30 | -0.1156 |
| `UAGAAAUACGAUAAAUUCC` | C2orf76 | -0.497 |
| `AGAUCGAUCAGCUCCUUGC` | PLCE1 | -0.4905 |
| `UCGAUGUUAACAUCAGCUU` | CDKN2C | 0.6379 |

For reference, 9 entries once more:

{"sirna": "UAUCGAGUAACAUUGUUGC", "gene": "ADGRL2", "seed-corrected z-score": "-0.5152"}
{"sirna": "AGAAAUAUCAAGAAAGUGA", "gene": "PLAC1", "seed-corrected z-score": "1.258"}
{"sirna": "UAACAGGUCCGGAGCAUCC", "gene": "PRODH2", "seed-corrected z-score": "0.1149"}
{"sirna": "UGUGGUUGAGUAGUAGCCC", "gene": "TACR1", "seed-corrected z-score": "-1.678"}
{"sirna": "UUCUUGUCUACGGCGAUCU", "gene": "CPSF3L", "seed-corrected z-score": "-0.9198"}
{"sirna": "UAUACCAUGAGCUCAUAUC", "gene": "OR2AG1", "seed-corrected z-score": "0.4831"}
{"sirna": "UUCCUUAUACAUUUCCUCC", "gene": "RPL5P1", "seed-corrected z-score": "-0.1055"}
{"sirna": "AAUGUUAUCUCCUAGAGUC", "gene": "SPPL2A", "seed-corrected z-score": "0.5436"}
{"sirna": "UAAGGCAUGAGUGUCGAAG", "gene": "MCUR1", "seed-corrected z-score": "0.3488"}

From PubChem BioAssay record AID1159506 (NCATS, 2015).